Assay [1] concerns the target human IFNAR1 truncation lacking extracellular SD2, fused with GFP, expressed on HEK293T cells (human) (UniProt P17181). Nature of the assay: flow cytometry on transfected HEK293T cells, PE anti-mouse IgG. In general terms: In flow cytometry, cells or beads pass a laser one at a time.
In assay [2] the target is human IFNAR1 truncation lacking extracellular SD3, fused with GFP, expressed on HEK293T cells (human) (UniProt P17181). The description is as above.

The chains behind the UniProt entries cited, without tags or fusion partners. Where a name states a change or a piece, a line headed by the entry shows the natural chain unless it says otherwise. A line that says so, or that is headed by a name, gives the form on record, which may keep a tag or linker.
human IFNAR1 truncation lacking extracellular SD2, fused with GFP, expressed on HEK293T cells (P17181, form named): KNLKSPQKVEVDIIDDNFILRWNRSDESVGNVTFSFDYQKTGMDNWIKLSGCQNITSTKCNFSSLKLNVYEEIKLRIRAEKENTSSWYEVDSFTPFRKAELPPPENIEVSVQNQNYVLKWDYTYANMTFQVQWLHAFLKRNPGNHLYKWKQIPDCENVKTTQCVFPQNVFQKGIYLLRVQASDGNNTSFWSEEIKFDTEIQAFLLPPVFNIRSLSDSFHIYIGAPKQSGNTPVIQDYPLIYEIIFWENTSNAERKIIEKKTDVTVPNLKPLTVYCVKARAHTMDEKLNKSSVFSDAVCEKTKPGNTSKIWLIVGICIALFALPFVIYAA
human IFNAR1 truncation lacking extracellular SD3, fused with GFP, expressed on HEK293T cells (P17181, form named): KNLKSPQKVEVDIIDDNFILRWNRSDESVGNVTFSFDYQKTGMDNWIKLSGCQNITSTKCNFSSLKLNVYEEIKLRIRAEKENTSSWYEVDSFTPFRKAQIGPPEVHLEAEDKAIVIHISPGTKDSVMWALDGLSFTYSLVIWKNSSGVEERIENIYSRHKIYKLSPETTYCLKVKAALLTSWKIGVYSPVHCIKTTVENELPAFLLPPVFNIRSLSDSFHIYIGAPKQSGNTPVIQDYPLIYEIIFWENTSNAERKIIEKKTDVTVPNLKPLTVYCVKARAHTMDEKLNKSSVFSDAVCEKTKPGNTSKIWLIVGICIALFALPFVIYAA

These are yes or no findings as the source states them, for the method shown. Some results given as binding are weak or reduced against the parent protein; the word gives no strength.

B1: mouse anti-human IFNAR1 monoclonal antibody 10C2 (antibody, V domains shown)
VH: QIQLVQSGPELKKPGETVKISCKASGYTFTNYGMNWVKQAPGKGLKWMGWINTYTGEPTYSDDFKGRFAFSLETSASTANLQINNLKDEDAATYFCAREGAIYYGDYVYFGVWGAGTTVTVSS
VL: DIVMTQSQKFMSTSVGDRVSITCKASQNVGTAVAWYQEKPGQSPKLLIYSASNRYTGVPDRFTGSGSGTAFTLTISNMQSEDLADYFCQQYYNYPLTFGAGTKLEVKR
notes: Mouse monoclonal IgG from a hybridoma, detected with anti-mouse IgG; also called antibody secreted by hybridoma cell line 10C2 (CGMCC No. 12542)
Turning to B1, the binding result in assay [1] and in assay [2] was “binds” each time.

B2: mouse anti-human IFNAR1 monoclonal antibody 10C9 (antibody, V domains shown)
VH: QIQLVQSGPELKKPGETVKISCKASGYTFTNYGVNWMKQAPGKGLKWMGWINTYTGEPTYADDFKGRFAFSLETSASTAYLQINNLKNEDTATYFCAREGVYYYGDWAWLAYWGQGTLVTVSA
VL: DIVMTQSQKFISTSVGDRVSVTCKASQNVGTNVAWYQQKPGQSPKTLIYSTSYRYNGVPDRFTGSGSGTDFTLTISNVQSEDLAEYFCQQYNSYYTFGGGTKLEIK
notes: Mouse monoclonal IgG from a hybridoma, detected with anti-mouse IgG; also called antibody secreted by hybridoma cell line 10C9 (CGMCC No. 12543)
For the molecule B2, the binding result in assay [1] and in assay [2] was “binds” in each case.

The values above are taken from US20190389956A1 (INSTITUTE OF BIOPHYSICS CHINESE ACADEMY OF SCIENCES, published 2019).
